Reference: US20060270880A1, “7-Azaindole derivatives as cox2 inhibitors” (priority 2003, published 2006)
Some results were stated once for a whole list of compounds, not compound by compound.

Sequences of proteins named here, by UniProt entry; tags and fusion partners are left off. Residues count along the entry.
UniProt P23219, 24-599: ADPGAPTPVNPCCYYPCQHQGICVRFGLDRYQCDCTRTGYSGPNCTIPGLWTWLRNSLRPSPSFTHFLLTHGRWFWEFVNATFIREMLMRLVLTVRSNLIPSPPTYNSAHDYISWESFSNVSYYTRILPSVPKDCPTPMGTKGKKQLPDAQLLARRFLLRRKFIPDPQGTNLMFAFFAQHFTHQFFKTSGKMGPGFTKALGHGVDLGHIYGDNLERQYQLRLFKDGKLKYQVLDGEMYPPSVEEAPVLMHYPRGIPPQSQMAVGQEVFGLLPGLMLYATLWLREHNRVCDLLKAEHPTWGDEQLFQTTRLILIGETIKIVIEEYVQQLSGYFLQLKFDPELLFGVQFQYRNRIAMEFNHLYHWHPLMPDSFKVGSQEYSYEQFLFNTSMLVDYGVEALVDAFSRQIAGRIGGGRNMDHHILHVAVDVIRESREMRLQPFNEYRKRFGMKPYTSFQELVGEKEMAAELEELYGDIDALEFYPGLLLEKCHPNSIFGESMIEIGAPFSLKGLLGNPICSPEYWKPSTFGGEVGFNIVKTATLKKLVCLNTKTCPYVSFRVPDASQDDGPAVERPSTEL

Biological target: COX-1 (Homo sapiens, UniProt P23219)
Test: Inhibition of COX-1, compared with COX-2 for selectivity
Format: biochemical
Conditions: ratio of IC50 values, COX-1 vs COX-2

Selectivity for COX-2 over COX-1, based on comparison of the respective IC50 values, at least 100 fold:
CS(=O)(=O)c1ccc(-c2ccc3ccn(Cc4ccncc4)c3n2)cc1 [Example 15]
CS(=O)(=O)c1ccc(-c2ccc3ccn(Cc4ccccn4)c3n2)cc1 [Example 16]
CS(=O)(=O)c1ccc(-c2ccc3ccn(Cc4ccc(Cl)cc4)c3n2)cc1 [Example 18]
CS(=O)(=O)c1ccc(-c2ccc3ccn(-c4ccccc4)c3n2)cc1 [Example 2, 1-Phenyl-6-[4-(methylsulfonyl)phenyl]-7-azaindole]
CC(C)Cc1cn(CC2CCCCC2)c2nc(-c3ccc(S(C)(=O)=O)cc3)ccc12 [Example 3, 1-(cyclohexanemethyl)-3-(2-methylprop-1-yl)-6-[4-(methylsulfonyl)phenyl]-7-azaindole]
CS(=O)(=O)c1ccc(-c2ccc3ccn(-c4ccc(F)cc4)c3n2)cc1 [Example 13]
CS(=O)(=O)c1ccc(-c2ccc3ccn(S(=O)(=O)c4ccccc4)c3n2)cc1 [Example 9]
CS(=O)(=O)c1ccc(-c2ccc3ccn(Cc4cccnc4)c3n2)cc1 [Example 14]
Cc1cn(CC2CCCCC2)c2nc(-c3ccc(S(C)(=O)=O)cc3)ccc12 [Example 6, 1-{cyclohexanemethyl)-3-methyl-6-[4-(methylsulfonyl)phenyl]-7-azaindole]
CS(=O)(=O)c1ccc(-c2ccc3ccn(CC4CCCCC4)c3n2)cc1 [Example 1, 1-(cyclohexanemethyl)-6-[4-(methylsulfonyl)phenyl]-7-azaindole]
CS(=O)(=O)c1ccc(-c2ccc3ccn(Cc4ccccc4)c3n2)cc1 [Example 12]
CCC(CC)Cn1ccc2ccc(-c3ccc(S(C)(=O)=O)cc3)nc21 [Example 10]
